Hit rate of the full screen: of about 390,000 compounds, about 910 (0.23%) were called active. Inconclusive results, whose numbers are uncertain, are shown with a selection of clear calls. Calls come from the whole dose curve; as a rule, active = well fitted inhibition curve with a large enough effect; inconclusive = small, poorly fitted or top-dose-only effect; inactive = no such curve, though single readings can be large or run the other way. A potency beside an inconclusive call is a rough fit, not a confirmed value.
Molecular target: Ubiquitin carboxyl-terminal hydrolase 1 (Homo sapiens) (UniProt O94782)
Experiment: Inhibitors of USP1/UAF1: Primary Screen; note: nearly all actives have a fitted effect of over 60% in size
Conditions: recombinant USP1/UAF1, Ub-Rhodamine cleavage fluorescence; activity change, negative = inhibition: at 57.1 µM (top of the series)
Summary of the method: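 High-throughput fluorogenic screen: 1nM USP1/UAF1 complex, Ub-Rho substrate 150nM final, 50mM HEPES pH 7.8 with 0.5mM EDTA, 0.1 mg/ml BSA, 1mM TCEP and 0.01% Tween-20.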
% is set by controls: 0 for no effect and ±100 for the full control effect; potency is the fitted concentration of half-maximal effect.

Protein sequences, listed by entry. Tags and fused reporters are not part of them. Lines headed by an entry give the natural chain unless they say otherwise; changes in a name come on top.
UniProt O94782: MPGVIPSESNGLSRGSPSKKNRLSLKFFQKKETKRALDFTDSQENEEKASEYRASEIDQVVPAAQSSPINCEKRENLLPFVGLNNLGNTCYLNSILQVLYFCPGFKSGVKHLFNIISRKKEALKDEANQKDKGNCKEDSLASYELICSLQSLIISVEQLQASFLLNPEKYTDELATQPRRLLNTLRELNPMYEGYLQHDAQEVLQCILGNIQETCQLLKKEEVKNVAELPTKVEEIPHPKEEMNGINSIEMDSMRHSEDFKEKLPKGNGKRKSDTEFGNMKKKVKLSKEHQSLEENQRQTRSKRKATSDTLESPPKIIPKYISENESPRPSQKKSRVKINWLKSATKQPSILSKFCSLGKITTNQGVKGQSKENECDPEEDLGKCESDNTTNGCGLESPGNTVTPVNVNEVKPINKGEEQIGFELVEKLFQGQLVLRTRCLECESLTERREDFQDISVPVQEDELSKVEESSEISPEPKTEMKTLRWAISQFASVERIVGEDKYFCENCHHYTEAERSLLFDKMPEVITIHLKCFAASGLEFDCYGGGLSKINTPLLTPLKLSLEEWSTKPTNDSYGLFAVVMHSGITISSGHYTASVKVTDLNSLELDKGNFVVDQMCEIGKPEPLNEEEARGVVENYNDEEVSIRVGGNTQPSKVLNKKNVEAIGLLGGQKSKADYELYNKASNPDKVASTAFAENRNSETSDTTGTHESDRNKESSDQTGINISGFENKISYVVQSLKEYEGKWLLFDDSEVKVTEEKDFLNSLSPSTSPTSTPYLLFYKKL

| SMILES | Potency | activity change, negative = inhibition |
| --- | --- | --- |
| CCC(C(=O)Nc1ccccc1OC)n1c(C(=O)OC)cc2ccsc21 (stereo unspecified) | inconclusive: 39.8 µM [inhibitor, single point] |  |
| O=C(Nc1ccc(F)cc1)c1ccc(CSc2ccc(Cl)cc2)o1 | inconclusive: 50.1 µM [inhibitor, partial curve, poor fit] |  |
| Cc1ccccc1N=Nc1ccc(O)c2ncccc12 |  | inactive: 5.29% |
| CCc1ccc(OC(=O)c2sc3ncn(Cc4cccc(F)c4)c(=O)c3c2C)cc1 | inconclusive: 0.891 µM [inhibitor, full curve, poor fit] |  |
| COc1cccc(N=Cc2nc(-c3ccccc3)oc2OC(C)=O)c1 |  | inactive: -7.46% |
| COc1ccc(-c2nnc(OCc3nc4ccccc4n3C)c3ccccc23)cc1 |  | inactive: -8.03% |
| C/C(CC(=O)Nc1ccc2c(c1)OCCO2)=N\NC(=O)COc1ccc(C)cc1 | inconclusive: 39.8 µM [inhibitor, partial curve, poor fit] |  |
| CC1CCN(C(=O)c2[nH]cnc2C(=O)N[C@@H](CCCCNC(=O)OC(C)(C)C)C(=O)OC(C)(C)C)CC1 | inconclusive: 50.1 µM [inhibitor, partial curve, poor fit] |  |
| COc1ccc(-c2ccc(/C=C3/C(=N)N4C=CSC4=NC3=O)o2)c([N+](=O)[O-])c1 |  | inconclusive: -27.8% [inhibitor] |
| COc1ccc(Cl)cc1NC(=O)c1cc2nc(-c3ccc(C)cc3)cc(C(F)(F)F)n2n1 | inconclusive: 0.251 µM [inhibitor, full curve, poor fit] |  |
| Cc1ccc(NCc2nnc(SCC(N)=O)o2)c(C)c1 | inconclusive: 5.01 µM [inhibitor, partial curve] |  |
| CCN1C(=O)N(S(=O)(=O)c2ccc(C)cc2)[C@@H](c2ccccc2)C(C(=O)OC)=C1C | inconclusive: 126 µM [inhibitor, partial curve, poor fit] |  |
| O=C(CSc1nnc(Cc2ccccc2)o1)c1ccc(F)cc1 | inconclusive: 28.2 µM [inhibitor, partial curve] |  |
| CCc1ccc(N2CC(C(=O)Nc3ccc(S(=O)(=O)Nc4nccs4)cc3)CC2=O)cc1 (stereo unspecified) | inconclusive: 7.08 µM [inhibitor, partial curve, poor fit] |  |
| N#Cc1c(NC(=O)CSc2ncccn2)oc(-c2ccccc2)c1-c1ccccc1 |  | inactive: -14.2% |
| CC1C(=O)N(Cc2cn(CCC3OCCCO3)nn2)CCS(=O)(=O)N1Cc1ccc(-c2ccc(Cl)c(Cl)c2)cc1 (stereo unspecified) |  | inactive: -23% |
| Cc1nc2ccc(NC(=O)c3nn(CC(C)C)c(=O)c4ccccc34)cc2s1 |  | inactive: -22.8% |
| COc1cc(/C=C2/C(=O)N(c3ccc([N+](=O)[O-])cc3)N=C2N2CCOCC2)ccc1O |  | inactive: -12.4% |
| COc1ccc(C2=NN(c3ccccc3)C(=O)/C2=C\c2ccc(O)c(OC)c2)cc1 |  | inactive: -24.6% |
| Cc1cc(/C=C2\SC(=S)N(C)C2=O)c(C)n1-c1cccc(O)c1 |  | inactive: -23.9% |
| O=C(NCCOc1ccccc1-c1ccccc1)c1ccco1 | inconclusive: 50.1 µM [inhibitor, partial curve, poor fit] |  |
| O=C(O)COc1ccccc1/C=N/NC(=O)c1cc(-c2ccc(F)cc2)nc2ccccc12 | inconclusive: 8.91 µM [inhibitor, full curve, poor fit] |  |

| SMILES | Potency | activity change, negative = inhibition |
| --- | --- | --- |
| Cc1cccc(NC(=O)CSc2c3c(nc4ccccc24)CCC3)n1 |  | inactive: -19.2% |
| CCC(C)Sc1cccc(-c2nc3cc(C)ccn3c2NCc2ccccc2)c1 (stereo unspecified) | inconclusive: 100 µM [inhibitor, partial curve, poor fit] |  |
| O=C(CN1CCCCC1)Nc1ccc(S(=O)(=O)N2CCCCCC2)cc1 |  | inactive: -14.6% |
| O=C(c1ccccn1)N1N=C2/C(=C/c3ccccc3)CCCC2C1c1ccccc1 (stereo unspecified) | inconclusive: 6.31 µM [inhibitor, full curve, poor fit] |  |
| CCOC(=O)C(C)Sc1ncnc2c1nnn2-c1ccc(F)cc1 (stereo unspecified) |  | inactive: -10.1% |
| Cc1ccc(S(=O)(=O)NCCn2nc(C)nc2C)cc1 | inconclusive: 7.08 µM [inhibitor, full curve, poor fit] |  |
| CC(C)CSc1nsc(N)n1 | inconclusive: 35.5 µM [inhibitor, partial curve, poor fit] |  |
| CCN(C(=O)C(C)N1C(=O)/C(=C/c2ccco2)SC1=S)C1CCS(=O)(=O)C1 (stereo unspecified) | inconclusive: 50.1 µM [inhibitor, partial curve, poor fit] |  |
| COc1ccc(N(C(=O)c2snc(C(N)=O)c2N)C(C(=O)NC2CCCC2)c2cccs2)cc1OC (stereo unspecified) | inconclusive: 1.26 µM [inhibitor, partial curve, poor fit] |  |
| CC1=C(C(=O)OC2CCCC2)C(c2ccc(Cl)cc2)CC(=O)N1 (stereo unspecified) | inconclusive: 44.7 µM [inhibitor, partial curve] |  |
| Nc1cc(-c2ccc(Br)cc2)nn1S(=O)(=O)c1cccc2nsnc12 |  | inactive: -26.9% |
| CC1=C(C(=O)OC2CCCCCC2)C(c2c(Cl)cccc2Cl)CC(=O)N1 (stereo unspecified) | inconclusive: 44.7 µM [inhibitor, partial curve] |  |
| CCN(CC)C(=N)/C(C#N)=N/Nc1ccc(C)cc1 |  | inactive: 1.18% |
| COc1ccc(CCNC(=O)c2cc(-c3ccc(C)c(C)c3)nc3ccccc23)cc1OC | inconclusive: 5.01 µM [inhibitor, partial curve] |  |
| CCOc1ccc(CCNC(c2nnc(-c3ccccc3)o2)c2ccccc2Cl)cc1OCC (stereo unspecified) | inconclusive: 1.12 µM [inhibitor, full curve] |  |
| COc1ccccc1C(=O)N/C(=C/c1ccco1)C(=O)Nc1ccc(C(=O)O)cc1 | inconclusive: 5.01 µM [inhibitor, single point] |  |
| CN1CCc2c(sc(N)c2C(N)=O)C1 | inconclusive: 44.7 µM [inhibitor, single point] |  |
| COC(=O)[C@]12C(=O)NC[C@H](CN1c1ccc(C(F)(F)F)cc1)N2C | inconclusive: 5.62 µM [inhibitor, partial curve] |  |
| COc1cc(/C=C2\SC(N)=NC2=O)ccc1OCC(=O)Nc1ccc(C)cc1 |  | inactive: -21.5% |
| Cc1nn(C)c2c1c(C(F)(F)F)cc(=O)n2C(C)C(=O)NCc1ccccc1 (stereo unspecified) |  | inactive: -26.3% |
| Cc1ccc(NC(=O)CN(C)C(=O)c2ccc(Cl)nc2)cc1 | inconclusive: 11.2 µM [inhibitor, partial curve, poor fit] |  |
| Cc1c(Cl)cccc1N=Cc1ccc([N+](=O)[O-])s1 | active: 31.6 µM |  |

An excerpt from above in order of number of heavy atoms, largest number first:

| SMILES | Potency | activity change, negative = inhibition |
| --- | --- | --- |
| CCc1ccc(OC(=O)c2sc3ncn(Cc4cccc(F)c4)c(=O)c3c2C)cc1 | inconclusive: 0.891 µM [inhibitor, full curve, poor fit] |  |
| COc1cc(/C=C2\SC(N)=NC2=O)ccc1OCC(=O)Nc1ccc(C)cc1 |  | inactive: -21.5% |
| CCN(C(=O)C(C)N1C(=O)/C(=C/c2ccco2)SC1=S)C1CCS(=O)(=O)C1 (stereo unspecified) | inconclusive: 50.1 µM [inhibitor, partial curve, poor fit] |  |

Continued.

| SMILES | Potency | activity change, negative = inhibition |
| --- | --- | --- |
| COc1ccc(-c2sc3ccc(N4CCOCC4)cc3c2-c2ccc(O)cc2)cc1 | inconclusive: 0.126 µM [inhibitor, full curve, poor fit] |  |
| N#C/C(=N\Nc1ccc(S(=O)(=O)N2CCc3ccccc32)cc1)C(N)=S | inconclusive: 28.2 µM [inhibitor, partial curve, poor fit] |  |
| CCCCC1C(=O)N(c2ccccc2)N(c2ccc(O)cc2)C1=O (stereo unspecified) | inconclusive: 28.2 µM [inhibitor, partial curve, poor fit] |  |
| O=C(Nc1ccc(Cl)c(S(=O)(=O)N2CCOCC2)c1)c1ccc2c(c1)OCO2 | inconclusive: 5.01 µM [inhibitor, full curve, poor fit] |  |
| CCOC(=O)C1=C(CN2CCCCC2)NC(=O)NC1c1ccc(OC)cc1 (stereo unspecified) | inconclusive: 11.2 µM [inhibitor, partial curve, poor fit] |  |
| O=C(c1cccs1)N1CCN=C1SCc1ccc(F)cc1 | inconclusive: 15.8 µM [inhibitor, partial curve] |  |
| CN(C)c1ccc(S(=O)(=O)NCC(=O)OCC(=O)Nc2cc(Cl)cc(Cl)c2)cc1[N+](=O)[O-] |  | inactive: -3.28% |
| COc1cc(/C=C2\CC/C(=C\c3cc(OC)c(OC)c(OC)c3)C2=O)cc(OC)c1OC | inconclusive: 28.2 µM [inhibitor, partial curve] |  |
| O=C(NC(=S)Nc1ccc(O)cc1)c1ccccc1Cl |  | inactive: -17.5% |
| CC(=O)NCCNC(=O)c1ccc2c(=O)n(CCc3ccccc3)c(=O)[nH]c2c1 |  | inactive: -16.4% |
| CC(C)CN(CC(C)C)c1nc(N)c(C#N)c(CC#N)c1C#N | inconclusive: 35.5 µM [inhibitor, partial curve] |  |
| O=C1c2ccccc2-c2cccc(C(=O)N3CCCCC3)c21 |  | inactive: -9.22% |
| COc1ccc(NC(=O)C[C@H]2C(=O)N(CCc3ccccc3)C[C@@H]2c2ccc(OC)cc2)cc1 |  | inactive: -15.9% |
| O=C(Nc1ccc(F)c(F)c1)c1ccc(F)c(S(=O)(=O)N2CCC3(CC2)OCCO3)c1 | inconclusive: 3.16 µM [inhibitor, partial curve] |  |
| CC(C)(C)NC(=O)C(c1ccncc1)N(C(=O)Cn1nnc(-c2ccc(F)cc2)n1)c1ccccc1 (stereo unspecified) |  | inactive: -9.79% |
| CSc1ccc(CCNC(=O)CCc2c(C)nc3c4cccnc4nn3c2C)cc1 |  | inactive: -23.6% |
| COc1ccccc1C1C(C(C)=O)=C(C)N=c2s/c(=C\c3cc(OC)c(OC)c(OC)c3)c(=O)n21 (stereo unspecified) | inconclusive: 35.5 µM [inhibitor, single point] |  |
| Cc1cccc(N=c2oc3cc(O)ccc3cc2C(N)=O)c1 |  | inactive: -12.6% |
| CC(C)Cc1nc2sc3c(c2c(=O)n1N)CC(C(C)C)OC3 (stereo unspecified) | inconclusive: 39.8 µM [inhibitor, partial curve, poor fit] |  |
| CC(=O)c1cc(-c2ccc(F)cc2)n(CCC(=O)NC2CCCCC2)c1C | inconclusive: 14.1 µM [inhibitor, partial curve, poor fit] |  |
| Cc1cccc(OCC(=O)Nc2cccc(-c3nc4ccccc4s3)c2)c1 | inconclusive: 0.891 µM [inhibitor, full curve] |  |
| Cc1ccccc1-c1cc(C(=O)Nc2sc(C(=O)OC(C)C)c(C)c2C#N)c2ccccc2n1 | inconclusive: 70.8 µM [inhibitor, partial curve, poor fit] |  |

2 entries from above, set out differently:
SMILES | Potency | activity change, negative = inhibition
COc1ccc(Cl)cc1NC(=O)c1cc2nc(-c3ccc(C)cc3)cc(C(F)(F)F)n2n1 | inconclusive: 0.251 µM [inhibitor, full curve, poor fit] | 
CC(C)CN(CC(C)C)c1nc(N)c(C#N)c(CC#N)c1C#N | inconclusive: 35.5 µM [inhibitor, partial curve] | 

Reference: PubChem BioAssay AID743255 (National Center for Advancing Translational Sciences (NCATS), 2014)
